Test results from patent publication US20090226952A1, “SCREENING METHOD FOR COMPOUNDS WITH A[…]” (Isis Innovation Limited, priority 2005, published 2009).
Some of these results come from one statement about several compounds together.

Test system: in vitro hippocampal slices (Schaffer Collaterals, excitatory post-synaptic potentials)
Assay: Electrophysiological field potential (EPSP) recordings in paired-pulse stimulated hippocampal slices
Type: cell-based, rat
Protocol: In the study, collective synchronised neuronal activity, i.e. working neuronal assemblies^3, were recorded while monitoring in parallel the underlying synaptic electrical activity (FIG. 1a). Accordingly, the use of the voltage sensitive dye, Di-4-ANEPPS, was combined with standard electrophysiological field potential recordings to measure the excitatory post-synaptic potentials (EPSPs). Under control conditions in physiological saline, electrical stimuli in a paired-pulse paradigm^18 were applied to the Schaffer Collaterals of in vitro hippocampal slices.
Following terminal anaesthesia using halothane, 400 μm transverse hippocampal slices from 2 week Wistar rats were obtained and left to rest for one hour in a high humidity chamber with oxygenated artificial cerebrospinal fluid (ACSF) (in mM: 124 NaCl, 22 NaHCO3, 10 glucose, 5 KCl, 2 CaCl2, 1.25 MgSO4, 1.25 NaH2PO4) before being submersed in dye solution (4% dye stock solution (in mM: 0.2 mM Di-4-ANEPPS (Molecular Probes, Oregon, USA) in 2.7% ethanol, 0.13% Cremaphor EL), 48% fetal bovine serum and 24% ACSF and 24% ACSF cellulose) for 25 minutes followed by a further one hour rest in the humidity chamber with oxygenated ACSF. […]

Structure (SMILES) | return of neurons to a resting state after peak 2 activation [ms]
NCC1(CC(=O)O)CCCCC1 [gabapentin] | ≤ 60
CN1CC[C@]23c4c5ccc(O)c4O[C@H]2[C@@H](O)C=C[C@H]3[C@H]1C5 [morphine] | ≤ 60
